From publication PMC7648797
These are yes or no findings as the source states them, for the method shown. Binding seen in cells or lysates may run through a third protein. Some results given as binding are weak or reduced against the parent protein; the word gives no strength.

Chains of the proteins cited; added tags and fusions are not shown.
UniProt Q6QI06: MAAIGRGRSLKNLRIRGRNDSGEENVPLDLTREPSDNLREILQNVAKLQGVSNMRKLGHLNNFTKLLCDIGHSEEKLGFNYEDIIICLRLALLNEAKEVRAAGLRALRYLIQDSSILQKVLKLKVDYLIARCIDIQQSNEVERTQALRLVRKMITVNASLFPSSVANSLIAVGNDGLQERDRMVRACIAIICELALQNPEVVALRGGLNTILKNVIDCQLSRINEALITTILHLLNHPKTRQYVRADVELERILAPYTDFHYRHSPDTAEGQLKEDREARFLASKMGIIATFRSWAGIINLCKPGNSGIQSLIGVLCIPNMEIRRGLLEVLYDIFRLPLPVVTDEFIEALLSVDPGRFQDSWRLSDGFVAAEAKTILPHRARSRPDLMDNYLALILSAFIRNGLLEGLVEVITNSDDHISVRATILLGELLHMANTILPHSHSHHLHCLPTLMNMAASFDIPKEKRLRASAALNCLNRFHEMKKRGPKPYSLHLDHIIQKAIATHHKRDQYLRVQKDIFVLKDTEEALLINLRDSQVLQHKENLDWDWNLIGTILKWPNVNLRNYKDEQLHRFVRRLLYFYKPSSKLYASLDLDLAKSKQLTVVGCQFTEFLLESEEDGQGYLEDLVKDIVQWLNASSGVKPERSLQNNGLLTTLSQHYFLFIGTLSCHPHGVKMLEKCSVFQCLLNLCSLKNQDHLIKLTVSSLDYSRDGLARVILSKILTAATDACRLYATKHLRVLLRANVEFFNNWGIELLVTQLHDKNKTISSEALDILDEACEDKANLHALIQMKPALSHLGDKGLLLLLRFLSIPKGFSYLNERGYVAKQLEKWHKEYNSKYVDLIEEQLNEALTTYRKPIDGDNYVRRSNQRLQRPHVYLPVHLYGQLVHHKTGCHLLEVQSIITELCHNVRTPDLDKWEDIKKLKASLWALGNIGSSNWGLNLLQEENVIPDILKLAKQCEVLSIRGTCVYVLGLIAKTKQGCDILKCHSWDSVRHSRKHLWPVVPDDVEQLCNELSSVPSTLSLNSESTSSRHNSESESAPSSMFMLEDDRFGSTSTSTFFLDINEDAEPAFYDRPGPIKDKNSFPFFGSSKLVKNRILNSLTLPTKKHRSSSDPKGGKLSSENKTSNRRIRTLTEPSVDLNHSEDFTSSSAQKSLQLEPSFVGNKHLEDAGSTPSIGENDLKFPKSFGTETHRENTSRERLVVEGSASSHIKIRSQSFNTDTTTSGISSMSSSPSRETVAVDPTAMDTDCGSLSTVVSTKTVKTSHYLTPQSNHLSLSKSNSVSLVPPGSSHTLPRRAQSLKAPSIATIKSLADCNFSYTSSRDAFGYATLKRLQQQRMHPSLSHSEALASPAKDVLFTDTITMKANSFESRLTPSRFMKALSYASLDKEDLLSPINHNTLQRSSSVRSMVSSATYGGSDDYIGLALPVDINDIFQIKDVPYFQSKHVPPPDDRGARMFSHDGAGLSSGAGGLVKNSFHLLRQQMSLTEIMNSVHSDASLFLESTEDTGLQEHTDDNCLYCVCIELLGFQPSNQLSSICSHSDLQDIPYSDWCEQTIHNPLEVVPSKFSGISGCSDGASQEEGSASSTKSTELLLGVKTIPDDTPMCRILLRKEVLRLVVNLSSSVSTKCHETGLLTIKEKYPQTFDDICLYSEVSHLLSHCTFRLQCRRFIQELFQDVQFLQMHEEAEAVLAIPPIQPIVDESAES
UniProt Q8VBV4: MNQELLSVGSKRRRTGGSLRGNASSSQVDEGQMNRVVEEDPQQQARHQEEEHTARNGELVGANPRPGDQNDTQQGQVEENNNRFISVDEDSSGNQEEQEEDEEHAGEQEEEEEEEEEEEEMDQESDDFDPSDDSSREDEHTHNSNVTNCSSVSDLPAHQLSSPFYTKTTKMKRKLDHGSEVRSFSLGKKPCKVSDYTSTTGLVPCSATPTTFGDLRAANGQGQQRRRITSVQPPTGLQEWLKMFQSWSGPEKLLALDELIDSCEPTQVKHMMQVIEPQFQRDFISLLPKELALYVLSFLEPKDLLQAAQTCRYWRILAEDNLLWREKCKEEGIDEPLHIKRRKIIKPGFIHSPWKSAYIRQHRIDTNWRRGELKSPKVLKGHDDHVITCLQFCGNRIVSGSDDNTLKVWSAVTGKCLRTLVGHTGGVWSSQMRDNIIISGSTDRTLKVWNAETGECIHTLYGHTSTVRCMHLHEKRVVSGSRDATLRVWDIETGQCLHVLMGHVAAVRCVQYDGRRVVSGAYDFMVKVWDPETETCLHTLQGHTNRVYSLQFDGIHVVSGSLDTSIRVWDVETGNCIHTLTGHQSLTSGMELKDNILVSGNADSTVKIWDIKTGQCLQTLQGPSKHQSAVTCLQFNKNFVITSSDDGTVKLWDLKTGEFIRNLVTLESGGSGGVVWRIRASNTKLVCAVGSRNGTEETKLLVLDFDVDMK

Target: Rictor (mouse (endogenous in NPSCs)) (UniProt Q6QI06)
Assay: co-IP; Rictor immunoprecipitates from RIPA-like extracts (2 mg) of Parp3+/+ and Parp3-/- NPSC, sicontrol or siFbxw7, blotted for Fbxw7; cells transfected with HA-Ubiquitin and treated with MG132 (1 uM, 6 h), or basal conditions; washes with 250 mM and 150 mM NaCl, 0.1% NP40

Fbxw7 (from UniProt Q8VBV4 1-710)
binding: binds
